Laboratory results taken from patent publication US20190177730.

Chains of the proteins cited; added tags and fusions are not shown. Chains listed by the source or under a name are the forms on record and can include a tag or linker.
PCSK9 (Mus musculus), one chain, as listed by the source, chain 2 of 2: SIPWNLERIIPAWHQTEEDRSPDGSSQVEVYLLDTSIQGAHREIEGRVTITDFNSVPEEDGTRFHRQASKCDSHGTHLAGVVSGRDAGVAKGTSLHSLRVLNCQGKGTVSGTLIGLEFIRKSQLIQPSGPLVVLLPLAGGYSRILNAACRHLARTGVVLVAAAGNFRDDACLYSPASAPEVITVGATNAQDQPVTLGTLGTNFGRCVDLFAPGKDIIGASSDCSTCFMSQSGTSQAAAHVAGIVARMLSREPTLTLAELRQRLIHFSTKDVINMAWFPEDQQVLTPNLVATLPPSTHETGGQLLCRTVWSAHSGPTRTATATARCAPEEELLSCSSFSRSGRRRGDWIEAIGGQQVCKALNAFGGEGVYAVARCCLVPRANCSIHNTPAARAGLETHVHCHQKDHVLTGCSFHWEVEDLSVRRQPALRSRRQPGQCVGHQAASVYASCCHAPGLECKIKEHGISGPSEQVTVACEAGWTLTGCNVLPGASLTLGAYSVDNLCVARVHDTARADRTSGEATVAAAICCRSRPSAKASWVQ
PCSK9 (Macaca mulatta), one chain, as listed by the source, chain 1 of 2: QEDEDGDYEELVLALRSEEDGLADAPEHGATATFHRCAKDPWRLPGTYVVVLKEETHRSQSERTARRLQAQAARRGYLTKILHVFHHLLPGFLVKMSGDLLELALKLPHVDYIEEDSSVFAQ
PCSK9 (Macaca mulatta), one chain, as listed by the source, chain 2 of 2: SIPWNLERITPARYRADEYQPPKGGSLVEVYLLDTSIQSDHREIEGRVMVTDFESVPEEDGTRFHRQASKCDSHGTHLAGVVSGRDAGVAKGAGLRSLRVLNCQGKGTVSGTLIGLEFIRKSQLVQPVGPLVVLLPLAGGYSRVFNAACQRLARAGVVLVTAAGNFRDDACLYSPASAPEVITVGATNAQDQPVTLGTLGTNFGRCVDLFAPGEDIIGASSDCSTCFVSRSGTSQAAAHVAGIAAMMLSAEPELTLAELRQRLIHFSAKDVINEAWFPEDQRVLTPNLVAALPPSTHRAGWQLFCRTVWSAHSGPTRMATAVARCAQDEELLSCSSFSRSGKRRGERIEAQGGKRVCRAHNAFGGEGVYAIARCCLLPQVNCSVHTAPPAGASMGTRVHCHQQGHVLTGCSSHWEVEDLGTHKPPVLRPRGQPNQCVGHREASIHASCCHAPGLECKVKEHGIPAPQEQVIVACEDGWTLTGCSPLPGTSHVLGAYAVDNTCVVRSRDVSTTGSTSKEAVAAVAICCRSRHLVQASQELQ
PCSK9 (Rattus norvegicus), one chain, as listed by the source, chain 2 of 2: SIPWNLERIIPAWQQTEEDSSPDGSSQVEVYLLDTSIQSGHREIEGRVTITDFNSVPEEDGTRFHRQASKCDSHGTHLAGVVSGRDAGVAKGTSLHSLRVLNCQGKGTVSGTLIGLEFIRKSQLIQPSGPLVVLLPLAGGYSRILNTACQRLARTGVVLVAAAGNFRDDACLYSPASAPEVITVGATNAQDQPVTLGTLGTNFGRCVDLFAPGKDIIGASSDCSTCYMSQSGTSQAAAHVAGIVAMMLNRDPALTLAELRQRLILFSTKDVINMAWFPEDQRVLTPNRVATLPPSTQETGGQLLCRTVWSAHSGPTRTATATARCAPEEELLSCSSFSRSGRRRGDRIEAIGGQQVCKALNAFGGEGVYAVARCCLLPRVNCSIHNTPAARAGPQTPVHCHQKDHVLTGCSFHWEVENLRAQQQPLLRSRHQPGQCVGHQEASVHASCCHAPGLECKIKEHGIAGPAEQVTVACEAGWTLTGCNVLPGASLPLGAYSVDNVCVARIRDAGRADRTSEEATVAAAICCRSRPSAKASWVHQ
PCSK9 (Mus musculus), one chain, as listed by the source, chain 1 of 2: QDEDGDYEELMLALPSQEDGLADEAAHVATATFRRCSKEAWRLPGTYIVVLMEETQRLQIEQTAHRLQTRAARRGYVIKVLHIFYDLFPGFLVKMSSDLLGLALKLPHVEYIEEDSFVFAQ
PCSK9 (Homo sapiens), one chain, as listed by the source, chain 1 of 2: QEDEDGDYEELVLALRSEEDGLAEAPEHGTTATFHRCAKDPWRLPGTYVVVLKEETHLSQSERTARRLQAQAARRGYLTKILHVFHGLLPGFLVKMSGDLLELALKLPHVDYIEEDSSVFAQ
PCSK9 (Homo sapiens), one chain, as listed by the source, chain 2 of 2: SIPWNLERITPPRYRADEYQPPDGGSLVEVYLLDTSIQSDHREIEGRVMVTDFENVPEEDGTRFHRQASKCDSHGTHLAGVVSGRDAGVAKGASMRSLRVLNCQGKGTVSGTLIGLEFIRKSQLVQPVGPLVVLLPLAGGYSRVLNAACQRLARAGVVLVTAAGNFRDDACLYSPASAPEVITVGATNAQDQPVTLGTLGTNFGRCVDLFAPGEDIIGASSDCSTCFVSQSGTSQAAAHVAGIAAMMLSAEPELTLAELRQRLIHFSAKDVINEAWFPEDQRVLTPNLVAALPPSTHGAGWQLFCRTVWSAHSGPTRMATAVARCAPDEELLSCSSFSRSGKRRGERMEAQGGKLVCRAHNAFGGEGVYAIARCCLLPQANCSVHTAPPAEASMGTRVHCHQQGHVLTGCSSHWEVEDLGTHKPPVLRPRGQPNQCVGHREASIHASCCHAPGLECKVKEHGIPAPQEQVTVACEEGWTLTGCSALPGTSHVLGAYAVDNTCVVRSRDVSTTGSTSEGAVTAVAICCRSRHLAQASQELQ
PCSK9 (Rattus norvegicus), one chain, as listed by the source, chain 1 of 2: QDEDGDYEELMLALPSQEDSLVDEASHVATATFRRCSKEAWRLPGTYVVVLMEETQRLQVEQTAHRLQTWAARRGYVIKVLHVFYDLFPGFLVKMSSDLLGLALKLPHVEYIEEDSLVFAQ

Assays:
PCSK9 (Homo sapiens) [1] = assay: filter binding; conditions: purified recombinant protein, single-stranded DNA
PCSK9 (Mus musculus) = assay: filter binding; conditions: all C = PP-dC (5-position), all U = Nap-dU (5-position); aptamer identity per figure legend; text names 11733-198; purified recombinant protein; single-stranded DNA
PCSK9 (Macaca mulatta) = assay: filter binding; conditions: all C = PP-dC (5-position), all U = Nap-dU (5-position); aptamer identity per figure legend; text names 11733-198; purified recombinant protein; single-stranded DNA
[2] = tested on: PCSK9 (Rattus norvegicus); assay: filter binding; conditions: all C = PP-dC (5-position), all U = Nap-dU (5-position); aptamer identity per figure legend; text names 11733-198; purified recombinant protein; single-stranded DNA
PCSK9 (Homo sapiens) [3] = assay: inhibition of the protein; conditions: all C = PP-dC (5-position), all U = Nap-dU (5-position), purified recombinant protein, single-stranded DNA

Sequence: CGUGCUUUAAGACCUGUUGAGAUGCGCUCA [11733-198]
- pKd (PCSK9 (Homo sapiens) [1]; all C = PP-dC (5-position), all U = Nap-dU (5-position), radiolabeled filter binding): 10.15

Sequence: AAGTTCCGGCCGCCTCGGGGTCCCTGCCAA [11730-6]
- pKd (PCSK9 (Homo sapiens) [1]; all C = Nap-dC (5-position), T unmodified, radiolabeled filter binding): 10.00

Sequence: AACGUACUUUAAGGCCUAUUGAGGAAACUC [11733-44 (SL1063)]
- pKd (PCSK9 (Homo sapiens) [1]; all C = PP-dC (5-position), all U = Nap-dU (5-position), 30-mer, paragraph names 11733-91_5 (11733-198)): 10.83
- pKd (PCSK9 (Mus musculus)): 10.11
- pKd (PCSK9 (Macaca mulatta)): 10.95
- pKd [2]: 9.78
- pEC50 (PCSK9 (Homo sapiens) [3]; blocks PCSK9 binding to LDL-R, room temperature, text names 11733-198): 8.68
- pIC50 (PCSK9 (Homo sapiens) [3]; inhibition of human wild-type PCSK9): 8.55

Sequence: GUUAUCGCAAUGUGCGCCCGGGUGCCCGCC [11730-19]
- pKd (PCSK9 (Homo sapiens) [1]; all C = Nap-dC (5-position), all U = Tyr-dU (5-position), radiolabeled filter binding): 9.70

pEC50, pIC50, pKd: −log10 of the molar value. The exact form of at least one protein or probe is not confirmed.
